Measured values taken from PubChem BioAssay AID493014 (National Center for Advancing Translational Sciences (NCATS), 2011).
The whole screen tested about 340,000 compounds, of which about 170 (0.05%) were called active. The shares of active, inactive and inconclusive entries below differ from those in the screen. The call rests on the fitted dose curve; in most records, active means well fitted inhibition curve with a large enough effect in the signal ratio, with a control signal flat (not every such curve was filed as active); inconclusive means small, poorly fitted or top-dose-only effect, or effect the other way, or a change in a side signal; inactive means flat fitted curve, though single readings scatter; the % refers to the signal ratio. Where the call is inconclusive, the potency comes from a doubtful curve fit.
Potency means the concentration at half of the fitted maximal effect.

Experiment: qHTS Assay to Find Inhibitors of Chronic Active B-Cell Receptor Signaling;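 on activity change, negative = inhibition: plate controls were basal doxycycline-induced cells for no effect and cells given 10 µM MG132 for full effect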
Settings: ABC-DLBCL IkBa-CBG/CBR reporter, luminescence ratio (green luciferase fused to IkBa over red control in TMD8 lymphoma cells), 4 h; activity change, negative = inhibition: at 46.1 µM (top of the series) unless noted
Procedure, shortened: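 Compounds up to 46 uM were incubated four hours with TMD8 cells whose green CBG68 luciferase is fused to IkappaBalpha; red CBR luminescence normalised the signal, and concentration-effect curves were fitted to fusion, red and ratio data.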
With COc1ccc(NC(=S)Nc2ccc(OC)cc2OC)c(OC)c1 the activity change, negative = inhibition was inconclusive: -0.319%.
In the case of CC(C)CCNC(=O)c1cc2c(=O)n3ccccc3nc2s1, the activity change, negative = inhibition was inconclusive: 13.5%.
For Cc1nnc2sc(-c3csc4c3CCCC4)nn12, the activity change, negative = inhibition was inconclusive: -15.1%.
With Cc1cc(C)c2c(=O)[nH]c(SCC(=O)NCc3ccccc3)nc2n1 the activity change, negative = inhibition was inconclusive: -2.4%.
With CC(c1ccccc1)C1CC(=O)N(CC(=O)O)C1=O (stereo not given) the activity change, negative = inhibition was inconclusive: -5.61%.
In the case of N#C/C(=C(/O)c1cccc(F)c1)c1nc2ccccc2s1, the Potency was inconclusive: 0.631 µM [rising, partial curve, poor fit].
In the case of Cc1cc(=O)n2c(n1)NC(=NCc1ccccc1)NC2c1ccccc1 (stereo not given), the Potency was inconclusive: 1.58 µM [rising, full curve, poor fit].
For Cc1ccc(OCCn2c(=O)cnc3ccccc32)cc1, the activity change, negative = inhibition was inconclusive: -5.36%.
With CNC(=O)c1cc(C(=O)c2ccc(Cl)cc2)c(Br)[nH]1 the activity change, negative = inhibition was inconclusive: -1.53%.
For CC(=O)c1cccc(Nc2nc(-c3ccccc3)cs2)c1, the activity change, negative = inhibition was inconclusive: -28.3%.
In the case of Cc1cccc(-c2noc(-c3ccccc3C(=O)NCC3CCCO3)n2)c1 (stereo not given), the “activity change, negative = inhibition” value was inactive: -0.471%.
With Cc1c(-c2ccccc2)nc2ccccc2c1C(=O)O the activity change, negative = inhibition was inconclusive: -1.06%.
With CC(C)(C)NC(=O)NC(=O)COC(=O)c1nc(-c2ccccc2)n(-c2cccc(C(F)(F)F)c2)n1 the activity change, negative = inhibition was inconclusive: 9.48%.
For CC(C)n1c(=S)[nH]c2cc(C(F)(F)F)ccc21, the activity change, negative = inhibition was inconclusive: 3.74%.
With COc1cc(-c2cn(S(=O)(=O)c3cccc4nsnc34)nc2N)cc(OC)c1OC the Potency was inconclusive: 1.3 µM [falling, full curve, poor fit].
For CC(C)CC(=O)NC(=S)Nc1ccc(NC(=O)c2ccco2)cc1, the activity change, negative = inhibition was inconclusive: 1.57%.
For O=[N+]([O-])c1ccc(COc2ccc(Br)cc2CN2CCOCC2)cc1, the activity change, negative = inhibition was inconclusive: -2.19%.
With O=C(NCCC1CCCCN1S(=O)(=O)c1cccs1)C(=O)Nc1ccccc1 (stereo not given) the activity change, negative = inhibition was inconclusive: 14.7%.
For O=C(O)/C=C\C(=O)NC1CCCCC1, the activity change, negative = inhibition was inconclusive: -0.695%.
In the case of O=[N+]([O-])c1ccc(Sc2ncccn2)c([N+](=O)[O-])c1, the Potency was inconclusive: 20 µM [falling, single point].
With O=c1oc2ccccc2c(N2CCCC2)c1[N+](=O)[O-] the Potency was inconclusive: 35.5 µM [falling, single point].
For O=C(NC(=S)Nc1cccc2c(O)cccc12)c1ccccc1[N+](=O)[O-], the Potency was inconclusive: 1.58 µM [falling, partial curve].
With C/C(=N\N=C(/N)SC1CC(=O)N(c2ccc(Cl)cc2)C1=O)c1cccs1 (stereo not given) the activity change, negative = inhibition was inconclusive: -15.5%.
In the case of Cc1ccc(-c2cc(C(=O)N3CCCC3)no2)cc1, the Potency was inconclusive: 6.51 µM [falling, single point].
In the case of Cc1cc(S(=O)(=O)N2CCCOC2CNC(=O)C(=O)NCc2ccco2)ccc1F (stereo not given), the activity change, negative = inhibition was inconclusive: -15.4%.
For Cc1nc2c(c3c1[nH]c1ccccc13)C(=O)CC(C)(C)C2, the activity change, negative = inhibition was inconclusive: -2.79%.
In the case of COc1ccc([C@H]2CC(=O)C=C(c3cccc(C#N)c3)C2)cc1, the activity change, negative = inhibition was inconclusive: 9.15%.
In the case of OC(COc1ccc(F)cc1)CN1CCN(CC(O)COc2ccc(F)cc2)CC1 (stereo not given), the activity change, negative = inhibition was inconclusive: 4.02%.
For C=C(C)Cn1c(CCCNC(=O)CC)nc2ccccc21, the activity change, negative = inhibition was inconclusive: 10.2%.
With O=C(CCSc1nc(-c2ccco2)cc(C(F)(F)F)n1)NCC1CCCO1 (stereo not given) the “activity change, negative = inhibition” value was inactive: 2.38%.
For CC(=O)N(c1c(C)n(C)n(-c2ccccc2)c1=O)C1(C(=O)NC2CCCCC2)CCCCC1, the activity change, negative = inhibition was inconclusive: 27.5%.
With Cc1nn(CCc2n[nH]c(=S)n2-c2cccc(Cl)c2)c(C)c1[N+](=O)[O-] the Potency was inconclusive: 29.1 µM [rising, single point].
For O=C(NC1CCCCC1)c1cccs1, the Potency was inconclusive: 29.1 µM [falling, single point].
In the case of Cc1ccc(N2C(=O)N(CC(=O)Nc3cccc([N+](=O)[O-])c3C)C(=O)C2C)cc1 (stereo not given), the activity change, negative = inhibition was inconclusive: -4.89%.
For O=C(Nc1nnc(C2CCCO2)s1)c1ccc(Br)cc1 (stereo not given), the Potency was inconclusive: 6.51 µM [rising, partial curve, poor fit].
For Cc1cc(NC(=O)CCC(=O)N(Cc2ccco2)C(C(=O)NC2CCCC2)c2ccccc2C)no1 (stereo not given), the activity change, negative = inhibition was inconclusive: -17.6%.
In the case of O=C(CSCc1ccc(Cl)cc1)Nc1cccc(C(=O)O)c1, the Potency was inconclusive: 22.4 µM [falling, single point].
For O=C(CNC1CCCCC1)Nc1ccc([N+](=O)[O-])cc1C(=O)Nc1ccccc1F, the activity change, negative = inhibition was inconclusive: 4.78%.
For O=C(Nc1ccc(S(=O)(=O)NC2=NCCCCC2)cc1)c1ccc(C(F)(F)F)cc1, the Potency was inconclusive: 35.5 µM [falling, single point].
In the case of CCOC(=O)C1=C(C)OC(N)=C(C#N)C1c1cc(F)ccc1F (stereo not given), the Potency was inconclusive: 29.1 µM [falling, single point].
With CCOC(=O)CNC(=O)CCNS(=O)(=O)c1ccc2c(c1)c(=O)n(C)c(=O)n2C the activity change, negative = inhibition was inconclusive: -18.3%.
In the case of Cc1ccc(NC(=O)c2cccc(OCc3c(C)noc3C)c2)cc1, the Potency was inconclusive: 4.61 µM [falling, partial curve].
With O=c1c2ccccc2sc2ccc(Cl)cc12 the activity change, negative = inhibition was inconclusive: 9.04%.
For Cc1ccc(NC(=O)CN2CCCCCC2)c(Br)c1, the Potency was inconclusive: 14.1 µM [falling, single point].
For Cc1cc2c(cc(C(=O)OC(C(=O)NCC3CCCO3)C(C)C)n2C)o1 (stereo not given), the activity change, negative = inhibition was inconclusive: 4.56%.
With Cc1cc(C)c(S(=O)(=O)N2CCN(S(=O)(=O)N3CCCCCC3)CC2)c(C)c1 the “activity change, negative = inhibition” value was inactive: 0.73%.
For COC(=O)NC1(C(F)(F)F)C(=O)NC(C)=C1C(=O)OC (stereo not given), the activity change, negative = inhibition was inconclusive: 0.923%.
For COc1ccc(Oc2nc3ccccc3n(C)c2=O)cc1, the activity change, negative = inhibition was inconclusive: 4.16%.
In the case of O=C(O)CN1C(=O)C(=O)N(Cc2ccc(Cl)cc2Cl)C1=O, the activity change, negative = inhibition was inconclusive: -0.417%.
With Cc1ccc2c(c1)C(=O)N1[C@H]3c4ccccc4OC[C@@H]3[C@H](c3ccccc3)[C@]1(C)C(=O)N2 the activity change, negative = inhibition was inconclusive: 4.6%.
